Test results reported in patent US20060292157A1.
Results are given in words; binding and its absence hold for the method and conditions named. Binding seen in cells or lysates may run through a third protein. Some binding calls cover weakened binding; strength is not graded here. Sequences can lack the tags named with a protein.

Protein sequences, listed by entry. Tags and fused reporters are not part of them. Residues count along the entry.
UniProt P11021, residues 19-654: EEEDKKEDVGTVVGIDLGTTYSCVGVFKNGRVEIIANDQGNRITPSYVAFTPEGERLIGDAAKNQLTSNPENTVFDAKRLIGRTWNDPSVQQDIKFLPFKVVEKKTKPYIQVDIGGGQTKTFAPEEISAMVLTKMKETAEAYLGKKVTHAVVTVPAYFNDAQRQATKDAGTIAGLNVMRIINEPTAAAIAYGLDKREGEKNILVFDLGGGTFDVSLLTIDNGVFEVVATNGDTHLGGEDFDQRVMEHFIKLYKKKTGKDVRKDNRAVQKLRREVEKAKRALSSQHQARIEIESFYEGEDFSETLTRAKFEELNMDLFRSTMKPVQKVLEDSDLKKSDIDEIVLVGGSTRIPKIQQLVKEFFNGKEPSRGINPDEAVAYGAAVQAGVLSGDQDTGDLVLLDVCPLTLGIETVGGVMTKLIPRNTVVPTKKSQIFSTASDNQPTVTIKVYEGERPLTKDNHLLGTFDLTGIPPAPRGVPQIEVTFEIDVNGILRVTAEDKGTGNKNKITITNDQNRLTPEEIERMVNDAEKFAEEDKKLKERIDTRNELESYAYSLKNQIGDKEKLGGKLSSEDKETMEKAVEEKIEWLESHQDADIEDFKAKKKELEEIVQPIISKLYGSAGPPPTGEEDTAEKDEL

Columns and labels:
Myc-tagged BiP/GRP78 [1] = biological target: Myc-tagged BiP/GRP78 (UniProt P11021); assay: co-IP with 9E10 Myc antibodies, blot with Flag antibody M2; also seen with polyclonal BiP/GRP78 antibody and in the reverse direction (Flag IP, 9E10 blot); HeLa cells
Myc-tagged BiP/GRP78 [2] = biological target: Myc-tagged BiP/GRP78 (UniProt P11021); assay: co-IP with BiP/GRP78 polyclonal antibodies, blot with Flag-M2 antibodies, cotransfected HeLa cells (FIG. 11B)
[3] = biological target: BiP/GRP78 (endogenous) (human (endogenous in human HeLa cells)) (UniProt P11021); assay: co-IP with BiP/GRP78 antibodies, blot with Flag antibodies; wild type against C/F mutants; HeLa and P69 cells
Myc-tagged BiP/GRP78 [4] = biological target: Myc-tagged BiP/GRP78 (UniProt P11021); assay: co-IP with 9E10 Myc antibodies; also in the reverse direction (Flag IP, 9E10 blot); HeLa cells
Myc-tagged BiP/GRP78 [5] = biological target: Myc-tagged BiP/GRP78 (UniProt P11021); assay: co-IP with BiP/GRP78 polyclonal antibodies, blot with Flag-M2 antibodies (FIG. 11C)
Myc-tagged BiP/GRP78 [6] = biological target: Myc-tagged BiP/GRP78 (UniProt P11021); assay: discussion of the co-IP results

B1: Flag-tagged MDA-7/IL-24 (full-length, pCMV3xFlag) (ligand, not shown: small tags and cut ends)
chain: QEFHFGPCQVKGVVPQKLWEAFWAVKDTMQAQDNITSARLLQQEVLQNVSDAESCYLVHTLLEFYLKTVFKNYHNRTVEVRTLKSFSTLANNFVLIVSQLQPSQENEMFSIRDSAHRRFLLFRRAFKQLDVEAALTKALGEVDILLTWMQKFYKL
Myc-tagged BiP/GRP78 [1]
  binding: binds
Myc-tagged BiP/GRP78 [2]
  binding: binds
[3]
  binding: binds

B2: Flag-tagged M4 (amino acids 104-206 of MDA-7/IL-24, pCMV3xFlag) (protein, not shown: small tags and cut ends)
chain: ESCYLVHTLLEFYLKTVFKNYHNRTVEVRTLKSFSTLANNFVLIVSQLQPSQENEMFSIRDSAHRRFLLFRRAFKQLDVEAALTKALGEVDILLTWMQKFYKL
Myc-tagged BiP/GRP78 [1]
  binding: binds
Myc-tagged BiP/GRP78 [2]
  binding: binds

B3: Flag-tagged M1 (amino acids 48-206 of MDA-7/IL-24, pCMV3xFlag) (protein, not shown: small tags and cut ends)
chain: GAQGQEFHFGPCQVKGVVPQKLWEAFWAVKDTMQAQDNITSARLLQQEVLQNVSDAESCYLVHTLLEFYLKTVFKNYHNRTVEVRTLKSFSTLANNFVLIVSQLQPSQENEMFSIRDSAHRRFLLFRRAFKQLDVEAALTKALGEVDILLTWMQKFYKL
Myc-tagged BiP/GRP78 [4]
  binding: binds
Myc-tagged BiP/GRP78 [5]
  binding: binds

B4: Flag-tagged M2 (amino acids 63-206 of MDA-7/IL-24, pCMV3xFlag) (protein, not shown: small tags and cut ends)
chain: GVVPQKLWEAFWAVKDTMQAQDNITSARLLQQEVLQNVSDAESCYLVHTLLEFYLKTVFKNYHNRTVEVRTLKSFSTLANNFVLIVSQLQPSQENEMFSIRDSAHRRFLLFRRAFKQLDVEAALTKALGEVDILLTWMQKFYKL
Myc-tagged BiP/GRP78 [4]
  binding: binds
Myc-tagged BiP/GRP78 [5]
  binding: binds
Myc-tagged BiP/GRP78 [6]
  binding: binds

B5: Flag-tagged M3 (amino acids 80-206 of MDA-7/IL-24, pCMV3xFlag) (protein, not shown: small tags and cut ends)
chain: QAQDNITSARLLQQEVLQNVSDAESCYLVHTLLEFYLKTVFKNYHNRTVEVRTLKSFSTLANNFVLIVSQLQPSQENEMFSIRDSAHRRFLLFRRAFKQLDVEAALTKALGEVDILLTWMQKFYKL
Myc-tagged BiP/GRP78 [4]
  binding: binds
Myc-tagged BiP/GRP78 [5]
  binding: binds
Myc-tagged BiP/GRP78 [6]
  binding: binds
